# The other results are listed elsewhere or left out.
# Protein sequences, listed by entry. Tags and fused reporters are not part of them. Lines headed by an entry give the natural chain unless they say otherwise; changes in a name come on top.
# UniProt Q9H9Q2: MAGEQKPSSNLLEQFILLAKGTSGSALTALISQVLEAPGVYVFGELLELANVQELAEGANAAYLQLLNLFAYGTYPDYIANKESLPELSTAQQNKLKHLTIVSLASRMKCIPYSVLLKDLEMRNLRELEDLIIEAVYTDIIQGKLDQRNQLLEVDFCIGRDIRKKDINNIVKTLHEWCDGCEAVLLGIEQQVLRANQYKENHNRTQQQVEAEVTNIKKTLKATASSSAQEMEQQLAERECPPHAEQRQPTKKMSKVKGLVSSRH
# UniProt Q8N684: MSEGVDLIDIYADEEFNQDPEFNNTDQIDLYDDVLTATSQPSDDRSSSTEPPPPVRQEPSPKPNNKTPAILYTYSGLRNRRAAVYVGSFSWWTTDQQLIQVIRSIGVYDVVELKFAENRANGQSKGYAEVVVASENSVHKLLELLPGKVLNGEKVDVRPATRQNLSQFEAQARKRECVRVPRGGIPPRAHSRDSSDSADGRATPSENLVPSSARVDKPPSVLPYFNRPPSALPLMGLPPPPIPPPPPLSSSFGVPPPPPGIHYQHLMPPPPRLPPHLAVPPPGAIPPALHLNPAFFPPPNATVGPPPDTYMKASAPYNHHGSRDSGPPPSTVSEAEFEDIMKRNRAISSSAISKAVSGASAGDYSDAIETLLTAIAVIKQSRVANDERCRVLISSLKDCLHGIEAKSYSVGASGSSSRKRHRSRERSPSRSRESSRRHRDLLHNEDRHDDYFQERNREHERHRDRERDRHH
# UniProt P57737: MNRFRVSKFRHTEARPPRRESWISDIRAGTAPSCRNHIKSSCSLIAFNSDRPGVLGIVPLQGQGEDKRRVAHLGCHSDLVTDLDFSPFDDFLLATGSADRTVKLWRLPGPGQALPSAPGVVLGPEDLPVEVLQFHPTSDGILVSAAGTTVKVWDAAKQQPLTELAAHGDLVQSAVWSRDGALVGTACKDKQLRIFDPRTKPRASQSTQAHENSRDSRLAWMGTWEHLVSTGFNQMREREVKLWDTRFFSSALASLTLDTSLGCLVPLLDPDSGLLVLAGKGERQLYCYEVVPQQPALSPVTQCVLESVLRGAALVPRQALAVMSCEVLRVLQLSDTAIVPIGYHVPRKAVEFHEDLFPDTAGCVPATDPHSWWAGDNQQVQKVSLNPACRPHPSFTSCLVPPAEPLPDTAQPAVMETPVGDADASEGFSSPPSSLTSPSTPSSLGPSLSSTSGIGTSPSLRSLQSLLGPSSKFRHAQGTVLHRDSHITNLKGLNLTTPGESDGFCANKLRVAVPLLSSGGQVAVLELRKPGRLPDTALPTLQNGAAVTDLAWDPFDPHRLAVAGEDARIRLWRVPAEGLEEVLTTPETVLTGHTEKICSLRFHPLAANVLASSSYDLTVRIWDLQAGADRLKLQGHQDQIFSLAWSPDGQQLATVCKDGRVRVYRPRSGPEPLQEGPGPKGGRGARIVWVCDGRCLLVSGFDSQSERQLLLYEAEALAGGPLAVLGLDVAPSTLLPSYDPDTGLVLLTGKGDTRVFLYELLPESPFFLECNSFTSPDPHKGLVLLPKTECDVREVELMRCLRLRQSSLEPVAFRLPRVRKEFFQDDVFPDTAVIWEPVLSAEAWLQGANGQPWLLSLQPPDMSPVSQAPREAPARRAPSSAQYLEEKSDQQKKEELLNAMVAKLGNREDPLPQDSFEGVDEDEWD
# UniProt P83436: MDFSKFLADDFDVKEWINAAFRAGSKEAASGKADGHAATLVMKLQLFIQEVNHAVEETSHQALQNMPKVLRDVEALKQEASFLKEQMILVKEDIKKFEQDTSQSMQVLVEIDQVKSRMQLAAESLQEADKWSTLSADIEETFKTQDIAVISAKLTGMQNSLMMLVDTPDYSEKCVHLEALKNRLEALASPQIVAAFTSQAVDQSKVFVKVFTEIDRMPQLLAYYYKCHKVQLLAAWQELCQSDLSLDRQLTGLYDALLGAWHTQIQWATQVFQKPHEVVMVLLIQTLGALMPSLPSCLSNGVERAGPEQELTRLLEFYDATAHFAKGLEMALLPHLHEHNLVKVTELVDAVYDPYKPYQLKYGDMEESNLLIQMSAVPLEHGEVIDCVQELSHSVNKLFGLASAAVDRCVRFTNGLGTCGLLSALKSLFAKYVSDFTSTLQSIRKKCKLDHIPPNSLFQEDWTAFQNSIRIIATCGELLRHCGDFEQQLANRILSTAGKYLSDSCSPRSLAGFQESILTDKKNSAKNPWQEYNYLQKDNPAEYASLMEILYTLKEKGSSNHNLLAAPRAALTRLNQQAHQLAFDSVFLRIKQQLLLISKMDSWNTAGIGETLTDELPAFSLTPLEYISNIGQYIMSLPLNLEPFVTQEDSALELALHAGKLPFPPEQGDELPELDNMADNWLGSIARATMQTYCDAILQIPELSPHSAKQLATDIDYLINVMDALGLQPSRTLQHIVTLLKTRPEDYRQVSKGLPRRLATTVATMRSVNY
# UniProt P50416: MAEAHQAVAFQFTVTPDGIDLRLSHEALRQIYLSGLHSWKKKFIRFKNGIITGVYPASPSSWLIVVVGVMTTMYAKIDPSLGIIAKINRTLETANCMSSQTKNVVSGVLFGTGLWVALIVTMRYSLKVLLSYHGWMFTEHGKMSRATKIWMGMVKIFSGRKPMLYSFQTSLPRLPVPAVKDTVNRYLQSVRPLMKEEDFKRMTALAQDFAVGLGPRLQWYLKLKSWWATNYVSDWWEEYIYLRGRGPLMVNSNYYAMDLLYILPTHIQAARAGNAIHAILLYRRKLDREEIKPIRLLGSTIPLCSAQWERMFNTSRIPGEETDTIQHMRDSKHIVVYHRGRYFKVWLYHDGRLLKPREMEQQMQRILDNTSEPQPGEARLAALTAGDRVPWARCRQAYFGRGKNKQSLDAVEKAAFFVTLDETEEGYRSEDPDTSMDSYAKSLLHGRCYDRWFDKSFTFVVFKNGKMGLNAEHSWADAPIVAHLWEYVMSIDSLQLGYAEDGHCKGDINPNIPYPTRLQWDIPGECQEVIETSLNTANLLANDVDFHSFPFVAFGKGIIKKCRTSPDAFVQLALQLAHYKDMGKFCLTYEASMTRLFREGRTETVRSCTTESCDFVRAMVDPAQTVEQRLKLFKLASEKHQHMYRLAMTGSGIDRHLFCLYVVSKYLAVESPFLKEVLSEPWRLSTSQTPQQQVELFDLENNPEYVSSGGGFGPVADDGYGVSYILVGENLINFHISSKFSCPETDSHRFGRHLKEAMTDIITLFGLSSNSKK
# UniProt Q9UBF2: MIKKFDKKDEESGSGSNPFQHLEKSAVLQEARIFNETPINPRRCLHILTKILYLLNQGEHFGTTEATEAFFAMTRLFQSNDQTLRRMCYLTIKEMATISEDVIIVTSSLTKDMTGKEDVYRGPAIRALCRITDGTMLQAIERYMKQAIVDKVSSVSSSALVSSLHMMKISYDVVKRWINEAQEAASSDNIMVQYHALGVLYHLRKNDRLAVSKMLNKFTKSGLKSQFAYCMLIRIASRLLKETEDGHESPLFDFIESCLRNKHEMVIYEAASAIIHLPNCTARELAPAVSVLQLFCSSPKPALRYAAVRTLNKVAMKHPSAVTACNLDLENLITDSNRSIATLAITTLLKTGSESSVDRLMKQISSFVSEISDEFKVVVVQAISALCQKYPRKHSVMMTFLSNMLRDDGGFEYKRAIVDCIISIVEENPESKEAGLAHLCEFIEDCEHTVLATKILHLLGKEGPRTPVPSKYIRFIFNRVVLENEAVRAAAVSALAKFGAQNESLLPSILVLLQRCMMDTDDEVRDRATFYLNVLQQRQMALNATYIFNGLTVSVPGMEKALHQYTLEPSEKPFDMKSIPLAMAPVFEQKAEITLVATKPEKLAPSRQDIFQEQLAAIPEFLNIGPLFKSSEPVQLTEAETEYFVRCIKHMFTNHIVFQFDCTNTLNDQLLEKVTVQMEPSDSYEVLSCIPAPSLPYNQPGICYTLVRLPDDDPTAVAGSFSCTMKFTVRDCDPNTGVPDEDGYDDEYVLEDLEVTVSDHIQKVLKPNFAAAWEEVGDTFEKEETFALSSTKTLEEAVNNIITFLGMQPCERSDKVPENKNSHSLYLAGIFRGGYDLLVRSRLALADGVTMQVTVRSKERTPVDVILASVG
# UniProt Q8N668, whole entry, looked up: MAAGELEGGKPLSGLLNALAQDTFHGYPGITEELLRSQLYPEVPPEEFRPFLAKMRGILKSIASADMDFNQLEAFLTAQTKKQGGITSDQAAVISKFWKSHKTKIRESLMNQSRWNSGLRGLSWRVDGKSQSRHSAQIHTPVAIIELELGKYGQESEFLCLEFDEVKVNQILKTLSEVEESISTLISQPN
# UniProt Q9NZN8, whole entry, looked up: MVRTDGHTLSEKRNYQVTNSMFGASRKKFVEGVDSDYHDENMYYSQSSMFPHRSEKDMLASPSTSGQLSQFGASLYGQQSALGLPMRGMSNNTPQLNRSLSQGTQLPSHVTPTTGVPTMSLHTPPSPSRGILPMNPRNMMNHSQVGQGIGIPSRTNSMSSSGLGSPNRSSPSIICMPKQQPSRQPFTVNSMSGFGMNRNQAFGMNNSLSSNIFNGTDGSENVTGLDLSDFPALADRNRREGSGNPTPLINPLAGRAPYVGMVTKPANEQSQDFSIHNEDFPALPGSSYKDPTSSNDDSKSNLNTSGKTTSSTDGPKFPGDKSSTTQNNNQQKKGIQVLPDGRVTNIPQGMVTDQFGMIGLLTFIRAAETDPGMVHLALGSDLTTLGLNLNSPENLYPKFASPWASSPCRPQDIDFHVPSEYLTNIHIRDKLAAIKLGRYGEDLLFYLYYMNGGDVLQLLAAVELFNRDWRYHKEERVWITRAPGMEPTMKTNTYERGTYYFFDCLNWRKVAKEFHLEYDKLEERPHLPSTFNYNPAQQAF
# Columns and labels:
# Assay in all cases: log2 fold change, soluble protein after heating vs DMSO (PISA); higher = thermal stabilisation; K562 lysate, 10 uM; active = over 0.2 and 3.5 SD of the protein, either way, in both replicates (recomputed)
# alvocidib = compound: CN1CC[C@H](c2c(O)cc(O)c3c(=O)cc(-c4ccccc4Cl)oc23)[C@H](O)C1 [alvocidib]
# How it was run: (§1)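 Dounce homogenisation of K562 pellets in PBS pH 7.4 with 1 mM MgCl2 produced a crude extract, used at 1 mg/mL protein. Exposure to 10 μM compound lasted 30 min, and aliquots were then heated for 3 min across 48°C-58°C, pooled and brought to 0.5% NP-40 at 4°C. The supernatant after 21,000xg for 90 min was quantified by TMTpro 16plex LC-MS/MS with channel sums equalised. Duplicate values are given as log-two fold change in thermal stability relative to solvent controls.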
# Tubastatin A = compound: CN1CCc2c(c3ccccc3n2Cc2ccc(C(=O)NO)cc2)C1 [Tubastatin A]
# How it was run: as §1
# [1] = compound: CNC(=O)C1=CC=CC=C1NC2=NC(=NC=C2Cl)NC3=C(C=C(C=C3)N4CCOCC4)OC
# How it was run: as §1
# defactinib = compound: CNC(=O)c1ccc(Nc2ncc(C(F)(F)F)c(NCc3nccnc3N(C)S(C)(=O)=O)n2)cc1 [defactinib]
# How it was run: as §1
# [2] = compound: CNc1nc(-c2ccc3c(N)n[nH]c3c2)cc(N2C[C@@H](C(=O)NC3CCCCC3)CC[C@H]2C)n1
# How it was run: as §1
# encorafenib = compound: COC(=O)N[C@@H](C)CNc1nccc(-c2cn(C(C)C)nc2-c2cc(Cl)cc(NS(C)(=O)=O)c2F)n1 [encorafenib]
# How it was run: as §1
# [3] = compound: COC(=O)[C@H](CCSC)NC(=O)C1=C(C=C(C=C1)NC[C@H](CS)N)C2=CC=CC=C2
# How it was run: as §1
# alisertib = compound: COc1cc(Nc2ncc3c(n2)-c2ccc(Cl)cc2C(c2c(F)cccc2OC)=NC3)ccc1C(=O)O [alisertib]
# How it was run: as §1
# [4] = compound: COc1cc2nc(-c3cc(F)ccc3O)nc(N[C@@H]3CNC[C@H]3C(C)(C)O)c2cc1OC
# How it was run: as §1
# gefitinib = compound: COc1cc2ncnc(Nc3ccc(F)c(Cl)c3)c2cc1OCCCN1CCOCC1 [gefitinib]
# How it was run: as §1
# lapatinib = compound: CS(=O)(=O)CCNCc1ccc(-c2ccc3ncnc(Nc4ccc(OCc5cccc(F)c5)c(Cl)c4)c3c2)o1 [lapatinib]
# How it was run: as §1
# pictilisib = compound: CS(=O)(=O)N1CCN(Cc2cc3nc(-c4cccc5[nH]ncc45)nc(N4CCOCC4)c3s2)CC1 [pictilisib]
# How it was run: as §1
# crizotinib = compound: C[C@@H](Oc1cc(-c2cnn(C3CCNCC3)c2)cnc1N)c1c(Cl)ccc(F)c1Cl [crizotinib]
# How it was run: as §1
# [5] = compound: C[C@H](C1=CC=C(C=C1)C(=O)NC2=C3C=CNC3=NC=C2)N
# How it was run: as §1
# duvelisib = compound: C[C@H](Nc1ncnc2nc[nH]c12)c1cc2cccc(Cl)c2c(=O)n1-c1ccccc1 [duvelisib]
# How it was run: as §1
# gandotinib = compound: Cc1cc(Nc2cc(CN3CCOCC3)c3nc(C)c(Cc4ccc(Cl)cc4F)n3n2)n[nH]1 [gandotinib]
# How it was run: as §1
# tozasertib = compound: Cc1cc(Nc2cc(N3CCN(C)CC3)nc(Sc3ccc(NC(=O)C4CC4)cc3)n2)n[nH]1 [tozasertib]
# How it was run: as §1
# doramapimod = compound: Cc1ccc(-n2nc(C(C)(C)C)cc2NC(=O)Nc2ccc(OCCN3CCOCC3)c3ccccc23)cc1 [doramapimod]
# How it was run: as §1
# bafetinib = compound: Cc1ccc(NC(=O)c2ccc(CN3CC[C@H](N(C)C)C3)c(C(F)(F)F)c2)cc1Nc1nccc(-c2cncnc2)n1 [bafetinib]
# How it was run: as §1
# [6] = compound: Cc1cccc(CC(=O)N2CCc3c2ccc(-c2cn(C)c4ncnc(N)c24)c3F)n1
# How it was run: as §1
Target,log2 fold change (alvocidib),log2 fold change (Tubastatin A),log2 fold change [1],log2 fold change (defactinib),log2 fold change [2],log2 fold change (encorafenib),log2 fold change [3],log2 fold change (alisertib),log2 fold change [4],log2 fold change (gefitinib),log2 fold change (lapatinib),log2 fold change (pictilisib),log2 fold change (crizotinib),log2 fold change [5],log2 fold change (duvelisib),log2 fold change (gandotinib),log2 fold change (tozasertib),log2 fold change (doramapimod),log2 fold change (bafetinib),log2 fold change [6]
COPS7B (UniProt Q9H9Q2),inactive: -0.08,inactive: 0.004,inactive: -0.011,inactive: -0.083,inactive: 0.02,inactive: -0.069,inactive: 0.098,inactive: -0.06,inactive: 0.014,inactive: 0.041,inactive: -0.013,inactive: -0.036,inactive: 0,inactive: 0.181,inactive: 0.042,inactive: -0.139,inactive: 0.173,inactive: 0.076,inactive: -0.019,inactive: 0.031
CPSF7 isoform 3 (UniProt Q8N684),inactive: -0.055,inactive: 0,inactive: 0,inactive: 0.011,inactive: -0.021,inactive: 0.037,inactive: -0.042,inactive: 0.028,inactive: -0.007,inactive: -0.037,inactive: -0.01,inactive: -0.024,inactive: 0.012,inactive: -0.058,inactive: -0.029,inactive: -0.059,inactive: -0.018,inactive: 0.015,inactive: -0.024,inactive: 0.005
CORO7 isoform 3 (UniProt P57737),inactive: 0.023,inactive: -0.087,inactive: -0.008,inactive: 0.028,inactive: 0.007,inactive: -0.008,inactive: 0.114,inactive: 0.007,inactive: -0.069,inactive: -0.047,inactive: 0.009,inactive: -0.016,inactive: -0.063,inactive: 0.06,inactive: 0.004,inactive: -0.119,inactive: 0.005,inactive: 0.013,inactive: 0.001,inactive: -0.067
COG7 (UniProt P83436),inactive: 0.019,inactive: -0.114,inactive: -0.02,inactive: 0.056,inactive: -0.047,inactive: 0.028,inactive: 0.035,inactive: 0.014,inactive: 0.012,inactive: 0.004,inactive: -0.014,inactive: -0.008,inactive: -0.025,inactive: -0.068,inactive: -0.01,inactive: -0.059,inactive: -0.028,inactive: 0.028,inactive: -0.044,inactive: 0.058
CPT1A (UniProt P50416),active: 0.407,inactive: 0.261,inactive: 0.004,inactive: -0.053,inactive: 0.113,inactive: 0.036,inactive: 0.078,inactive: -0.014,inactive: -0.051,inactive: 0.031,inactive: 0.013,inactive: 0.014,inactive: 0.114,inactive: 0.009,inactive: 0.021,inactive: 0.057,inactive: 0.037,inactive: 0.038,inactive: -0.056,inactive: -0.027
COPG2 (UniProt Q9UBF2),inactive: -0.01,inactive: 0.025,inactive: -0.004,inactive: -0.006,inactive: 0.002,inactive: -0.016,inactive: 0.027,inactive: -0.003,inactive: 0.007,inactive: -0.017,inactive: -0.015,inactive: -0.03,inactive: -0.009,inactive: 0.011,inactive: 0.015,inactive: -0.015,inactive: -0.009,inactive: 0.022,inactive: -0.032,inactive: 0.001
COMMD1 (UniProt Q8N668),inactive: -0.041,inactive: 0.002,inactive: 0.006,inactive: -0.038,inactive: -0.027,inactive: 0.001,inactive: -0.05,inactive: 0.009,inactive: 0.04,inactive: -0.007,inactive: -0.04,inactive: -0.005,inactive: -0.01,inactive: 0.015,inactive: -0.005,inactive: -0.075,inactive: 0.06,inactive: 0.029,inactive: 0.043,inactive: 0.035
CNOT2 (UniProt Q9NZN8),inactive: -0.003,inactive: -0.046,inactive: -0.002,inactive: 0.001,inactive: -0.027,inactive: -0.002,inactive: 0.013,inactive: -0.025,inactive: 0.008,inactive: 0.011,inactive: -0.027,inactive: -0.014,inactive: -0.023,inactive: 0.111,inactive: -0.008,inactive: -0.093,inactive: 0.001,inactive: -0.01,inactive: 0.024,inactive: -0.005

# Shown tab-delimited: entries from further up
Target	log2 fold change (alvocidib)	log2 fold change (Tubastatin A)	log2 fold change [1]	log2 fold change (defactinib)	log2 fold change [2]	log2 fold change (encorafenib)	log2 fold change [3]	log2 fold change (alisertib)	log2 fold change [4]	log2 fold change (gefitinib)	log2 fold change (lapatinib)	log2 fold change (pictilisib)	log2 fold change (crizotinib)	log2 fold change [5]	log2 fold change (duvelisib)	log2 fold change (gandotinib)	log2 fold change (tozasertib)	log2 fold change (doramapimod)	log2 fold change (bafetinib)	log2 fold change [6]
CPT1A (UniProt P50416)	active: 0.407	inactive: 0.261	inactive: 0.004	inactive: -0.053	inactive: 0.113	inactive: 0.036	inactive: 0.078	inactive: -0.014	inactive: -0.051	inactive: 0.031	inactive: 0.013	inactive: 0.014	inactive: 0.114	inactive: 0.009	inactive: 0.021	inactive: 0.057	inactive: 0.037	inactive: 0.038	inactive: -0.056	inactive: -0.027
COMMD1 (UniProt Q8N668)	inactive: -0.041	inactive: 0.002	inactive: 0.006	inactive: -0.038	inactive: -0.027	inactive: 0.001	inactive: -0.05	inactive: 0.009	inactive: 0.04	inactive: -0.007	inactive: -0.04	inactive: -0.005	inactive: -0.01	inactive: 0.015	inactive: -0.005	inactive: -0.075	inactive: 0.06	inactive: 0.029	inactive: 0.043	inactive: 0.035
